Data on 1 substance can be found in publication PMC12219365.

Chains of the proteins cited; added tags and fusions are not shown. Residues count along the entry.
UniProt O00206, residues 24-839: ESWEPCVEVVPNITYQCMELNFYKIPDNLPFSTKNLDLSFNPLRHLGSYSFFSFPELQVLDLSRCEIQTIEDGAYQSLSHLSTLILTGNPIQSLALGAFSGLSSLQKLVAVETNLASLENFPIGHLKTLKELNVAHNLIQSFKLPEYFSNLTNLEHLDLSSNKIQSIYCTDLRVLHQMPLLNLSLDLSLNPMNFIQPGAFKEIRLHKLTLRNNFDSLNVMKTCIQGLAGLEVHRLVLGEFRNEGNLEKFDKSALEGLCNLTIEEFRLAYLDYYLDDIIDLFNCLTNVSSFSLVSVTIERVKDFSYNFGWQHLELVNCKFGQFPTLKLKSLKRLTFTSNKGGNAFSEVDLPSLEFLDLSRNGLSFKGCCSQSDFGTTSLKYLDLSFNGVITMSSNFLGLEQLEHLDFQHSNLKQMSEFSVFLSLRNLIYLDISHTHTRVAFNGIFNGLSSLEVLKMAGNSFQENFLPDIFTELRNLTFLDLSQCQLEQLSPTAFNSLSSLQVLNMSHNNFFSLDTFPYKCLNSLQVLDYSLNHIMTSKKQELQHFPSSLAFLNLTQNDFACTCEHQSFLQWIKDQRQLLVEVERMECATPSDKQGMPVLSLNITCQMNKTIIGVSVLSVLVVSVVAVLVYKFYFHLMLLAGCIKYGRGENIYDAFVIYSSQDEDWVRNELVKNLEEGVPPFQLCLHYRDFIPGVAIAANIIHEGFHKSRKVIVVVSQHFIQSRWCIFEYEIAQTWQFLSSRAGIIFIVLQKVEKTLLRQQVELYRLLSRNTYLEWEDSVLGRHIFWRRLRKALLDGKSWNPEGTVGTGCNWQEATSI
UniProt Q92508: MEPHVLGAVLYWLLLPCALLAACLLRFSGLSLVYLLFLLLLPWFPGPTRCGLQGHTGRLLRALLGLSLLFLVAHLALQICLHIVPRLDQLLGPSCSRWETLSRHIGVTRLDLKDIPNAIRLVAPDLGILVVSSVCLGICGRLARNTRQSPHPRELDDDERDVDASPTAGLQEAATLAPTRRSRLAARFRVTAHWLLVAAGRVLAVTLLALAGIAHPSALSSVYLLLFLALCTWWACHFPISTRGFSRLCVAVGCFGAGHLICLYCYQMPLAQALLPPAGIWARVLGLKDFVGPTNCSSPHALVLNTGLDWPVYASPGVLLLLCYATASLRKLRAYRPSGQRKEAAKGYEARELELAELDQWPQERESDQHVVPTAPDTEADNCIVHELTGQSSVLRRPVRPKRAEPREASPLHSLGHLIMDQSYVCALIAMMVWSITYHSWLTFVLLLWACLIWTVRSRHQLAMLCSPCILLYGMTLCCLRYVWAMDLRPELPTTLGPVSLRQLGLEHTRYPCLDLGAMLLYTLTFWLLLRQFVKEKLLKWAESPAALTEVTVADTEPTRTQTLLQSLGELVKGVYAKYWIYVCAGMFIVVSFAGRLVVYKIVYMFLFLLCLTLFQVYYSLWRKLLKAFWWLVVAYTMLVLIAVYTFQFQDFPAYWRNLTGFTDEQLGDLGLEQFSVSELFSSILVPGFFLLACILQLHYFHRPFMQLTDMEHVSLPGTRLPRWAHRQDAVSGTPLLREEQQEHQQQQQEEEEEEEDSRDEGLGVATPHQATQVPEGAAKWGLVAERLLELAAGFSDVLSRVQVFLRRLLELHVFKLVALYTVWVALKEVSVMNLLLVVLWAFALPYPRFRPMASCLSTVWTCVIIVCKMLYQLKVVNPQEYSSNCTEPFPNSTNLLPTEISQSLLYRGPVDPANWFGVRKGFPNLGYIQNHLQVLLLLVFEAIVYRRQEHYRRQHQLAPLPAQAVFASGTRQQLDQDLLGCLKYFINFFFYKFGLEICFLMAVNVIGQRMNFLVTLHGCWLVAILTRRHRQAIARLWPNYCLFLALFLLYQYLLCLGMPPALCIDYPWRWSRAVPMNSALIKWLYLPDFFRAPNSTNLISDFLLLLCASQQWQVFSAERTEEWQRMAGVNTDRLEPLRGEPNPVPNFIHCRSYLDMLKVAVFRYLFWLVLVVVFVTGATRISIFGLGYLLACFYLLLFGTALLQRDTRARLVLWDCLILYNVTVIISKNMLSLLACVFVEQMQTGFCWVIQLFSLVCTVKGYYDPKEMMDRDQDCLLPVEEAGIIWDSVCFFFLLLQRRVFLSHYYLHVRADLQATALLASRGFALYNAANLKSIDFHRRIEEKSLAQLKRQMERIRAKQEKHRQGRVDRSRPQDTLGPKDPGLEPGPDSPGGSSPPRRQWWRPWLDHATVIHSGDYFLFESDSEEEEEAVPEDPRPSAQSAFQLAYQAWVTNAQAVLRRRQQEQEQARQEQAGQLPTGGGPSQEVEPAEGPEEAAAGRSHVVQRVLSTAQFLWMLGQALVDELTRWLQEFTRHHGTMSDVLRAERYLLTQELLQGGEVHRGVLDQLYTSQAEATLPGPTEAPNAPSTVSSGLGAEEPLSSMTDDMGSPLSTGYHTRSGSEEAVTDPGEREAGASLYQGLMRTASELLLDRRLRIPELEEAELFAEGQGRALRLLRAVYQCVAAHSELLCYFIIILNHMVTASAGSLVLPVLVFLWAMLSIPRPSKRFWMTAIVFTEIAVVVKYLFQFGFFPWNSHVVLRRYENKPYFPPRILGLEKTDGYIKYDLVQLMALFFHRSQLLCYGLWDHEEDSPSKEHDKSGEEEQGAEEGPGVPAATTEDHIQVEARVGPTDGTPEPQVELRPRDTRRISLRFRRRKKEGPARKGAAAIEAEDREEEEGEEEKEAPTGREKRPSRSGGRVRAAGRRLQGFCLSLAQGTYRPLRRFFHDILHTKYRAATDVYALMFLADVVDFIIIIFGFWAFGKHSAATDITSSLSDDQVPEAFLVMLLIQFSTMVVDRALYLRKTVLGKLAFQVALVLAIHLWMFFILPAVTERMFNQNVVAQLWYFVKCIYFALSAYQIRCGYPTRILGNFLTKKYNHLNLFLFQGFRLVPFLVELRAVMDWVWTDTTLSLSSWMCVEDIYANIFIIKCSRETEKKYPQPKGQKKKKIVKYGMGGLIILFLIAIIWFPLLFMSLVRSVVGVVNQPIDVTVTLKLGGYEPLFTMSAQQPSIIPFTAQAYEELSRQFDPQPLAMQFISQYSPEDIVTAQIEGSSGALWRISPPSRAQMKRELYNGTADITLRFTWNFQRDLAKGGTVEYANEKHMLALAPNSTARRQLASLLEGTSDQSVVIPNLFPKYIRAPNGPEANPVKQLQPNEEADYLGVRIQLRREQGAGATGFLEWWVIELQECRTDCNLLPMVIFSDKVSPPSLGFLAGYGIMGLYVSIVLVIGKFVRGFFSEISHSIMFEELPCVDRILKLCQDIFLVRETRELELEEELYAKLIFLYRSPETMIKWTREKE

The target of the test is toll-like receptor 4 (TLR4) (human (endogenous in BON-1)) (UniProt O00206). Nature of the test: co-IP; RIPA lysate of BON-1 cells treated with or without LPS; TLR4 antibody, magnetic beads (co-immunoprecipitation kit); TLR4 and PIEZO1 detected by SDS-PAGE and western blot.

No constants are given. Whether binding was seen depends on the method and setting. In cells and extracts the contact can be indirect. Some binding calls cover weakened binding; strength is not graded here.

Turning to “Piezo-type mechanosensitive ion channel component 1 (PIEZO1) (from UniProt Q92508 1-2521)”, the binding result is “binds”.
